The record followed here is the supplement of paper PMC3682954.

The test deals with RAW 264.7. Description: HMGB1-induced TNF-alpha production relative to HMGB1-stimulated control; higher = more TNF-alpha secretion (less inhibition). The following applies: stimulus: HMGB1 5 ug/ml, 18 h.
Setting [1] is: compound concentration: 1 ug/ml.

SMILES strings stand for the structures. Structures can show the parent of a compound that is named as a salt. ± gives the standard deviation of the averaged measurements. Some of the results follow. Most values come without repeats; read them as rough.

In the case of `N[C@@H](Cc1cnc[nH]1)C(=O)Nc1ccc2ccccc2c1` [L-Histidine beta-naphthylamide], the “HMGB1-induced TNF-alpha production” value under setting [1] came to 98.9%.
On to `COc1ccc(-c2cc(=O)c3c(OC)c(OC)c(OC)c(OC)c3o2)cc1OC`, for which the “HMGB1-induced TNF-alpha production” value (compound concentration: 3 uM) came out at 102%.
With `COc1ccc(-c2cc(=O)c3c(OC)c(OC)c(OC)c(OC)c3o2)cc1OC` [Nobiletin], the “HMGB1-induced TNF-alpha production” value (compound concentration: 3 uM) came out at 99.1%.
Still for that read-out and setting: the figure for `CCC[C@@H]1C[C@@H](C(=O)N[C@@H]([C@H]2O[C@H](SC)[C@H](O)[C@@H](O)[C@H]2O)[C@@H](C)O)N(C)C1` [Lincomycin] is 94%; for `CCC[C@@H]1C[C@@H](C(=O)N[C@@H]([C@H]2O[C@H](SC)[C@H](O)[C@@H](O)[C@H]2O)[C@@H](C)O)N(C)C1` [Lincomycin hydrochloride] it is 70.8%.
On the same count and under the same terms, the result for `CCC[C@@H]1C[C@@H](C(=O)N[C@@H]([C@H]2O[C@H](SC)[C@H](O)[C@@H](O)[C@H]2O)[C@@H](C)O)N(C)C1` reads 96.2%; that for `CN1CCCN=C1/C=C/c1cccs1`, 78%; that for `CN1CCCN=C1/C=C/c1cccs1` [Pyrantel Pamoate], 95.8%.
For `CN1CCCN=C1/C=C/c1cccs1` [Pyrantel tartrate], the “HMGB1-induced TNF-alpha production” value (compound concentration: 3 uM) was 93.8%.
The same measure, in the same setting: the result for `CC(C)(C)NC(=O)[C@H]1CC[C@H]2[C@@H]3CC[C@H]4NC(=O)C=C[C@]4(C)[C@H]3CC[C@]12C` reads 103.1 ± 0.71%; that for `CC(C)(C)NC(=O)[C@H]1CC[C@H]2[C@@H]3CC[C@H]4NC(=O)C=C[C@]4(C)[C@H]3CC[C@]12C` [Finasteride], 95.6 ± 13%.
The same measure, in the same setting: the result for `C=CC[N+]1([C@H]2C[C@H]3[C@@H]4CC[C@H]5C[C@H](O)[C@@H](N6CCOCC6)C[C@]5(C)[C@H]4CC[C@]3(C)[C@H]2OC(C)=O)CCCC1` [Rocuronium] reads 99.8%.
On to `Nc1nc(N)c2nc(-c3ccccc3)c(N)nc2n1` [Triamterene], for which the “HMGB1-induced TNF-alpha production” value (compound concentration: 3 uM) stood at 86 ± 19%.
Still for that read-out and setting: the result for `Nc1nc(N)c2nc(-c3ccccc3)c(N)nc2n1` reads 68.5%; that for `C=C1CC[C@H](O)C/C1=C/C=C1\CCC[C@]2(C)[C@@H]([C@H](C)/C=C/[C@H](C)C(C)C)CC[C@@H]12`, 82.8%.
Still for that read-out and setting: the result for `CCCCOc1ccc(C(=O)CCN2CCCCC2)cc1` [Dyclonine hydrochloride] reads 66.1%; that for `CCCCOc1ccc(C(=O)CCN2CCCCC2)cc1`, 67.3%.
For the molecule `C=C1C(=O)O[C@H]2[C@H]1CC/C(C)=C/CC[C@@]1(C)O[C@@H]21` [Parthenolide], the “HMGB1-induced TNF-alpha production” value under setting [1] came out at 22.7% and the “HMGB1-induced TNF-alpha production” value (compound concentration: 3 uM) worked out at 11.3 ± 13%.
Regarding `CC[C@H](C)C(=O)O[C@H]1C[C@H](O)C=C2C=C[C@H](C)[C@H](CC[C@@H]3C[C@@H](O)CC(=O)O3)[C@H]21` [Pravastatin Lactone], the “HMGB1-induced TNF-alpha production” value (compound concentration: 3 uM) stood at 87.3%.
Consider `COc1ccc(CCn2nnnc2C2(c3ccc(C)cc3)CC2)cc1` [Mephetyl tetrazole], for which the “HMGB1-induced TNF-alpha production” value (compound concentration: 3 uM) was found to be 97%.
The same measure, in the same setting: the figure for `CN1[C@@H]2CC[C@H]1C[C@@H](OC(=O)C(O)c1ccccc1)C2` (mixture of isomers) [Homatropine hydrobromide (R,S)] is 64.5%.
Same read-out and setting: the figure for `CN1[C@@H]2CC[C@H]1C[C@@H](OC(=O)C(O)c1ccccc1)C2` (mixture of isomers) [DL-Homatropine hydrobromide] is 81.1%; for `Cn1nnc2c(C(N)=O)ncn2c1=O` [Temozolomide] it is 98.1 ± 16%.
On the same count and under the same terms, the figure for `Cn1nnc2c(C(N)=O)ncn2c1=O` is 125%.
In the case of `CC(C)(C)CC(C)(C)c1ccc(OCCOCC[N+](C)(C)Cc2ccccc2)cc1` [Benzethonium chloride], the “HMGB1-induced TNF-alpha production” value (compound concentration: 3 uM) amounted to 132%.
On the same count and under the same terms, the figure for `CC(C)(C)CC(C)(C)c1ccc(OCCOCC[N+](C)(C)Cc2ccccc2)cc1` is 102%; for `CC(C)NCC(O)COc1cccc2[nH]ccc12` (stereo not given) it is 103%.
Consider `CC(C)NCC(O)COc1cccc2[nH]ccc12` (stereo not given) [Pindolol], for which, where the note is “compound concentration: 3 uM”, the “HMGB1-induced TNF-alpha production” value was 101 ± 1.2%.
On the same count and under the same terms, the result for `OC(CCN1CCCC1)(c1ccccc1)C1CCCCC1` (stereo not given) reads 77.6%; that for `OC(CCN1CCCC1)(c1ccccc1)C1CCCCC1` (stereo not given) [Procyclidine hydrochloride], 108%; that for `CC(CN(C)C)CN1c2ccccc2CCc2ccccc21` (stereo not given), 89.9%.
On to `CC(CN(C)C)CN1c2ccccc2CCc2ccccc21` (stereo not given) [Trimipramine maleate], for which the “HMGB1-induced TNF-alpha production” value (compound concentration: 3 uM) was found to be 106%.
With `CC(CN(C)C)CN1c2ccccc2CCc2ccccc21` (stereo not given) [Trimipramine maleate salt], the “HMGB1-induced TNF-alpha production” value (compound concentration: 3 uM) stood at 117%.
Consider `COC(=O)[C@H]1[C@H]2C[C@H]3c4[nH]c5ccccc5c4CCN3C[C@H]2CC[C@@H]1O` [Rauwolscine hydrochloride], for which the “HMGB1-induced TNF-alpha production” value turned out to be 84.3% under setting [1] and 108% (compound concentration: 3 uM).
In the case of `COC(=O)C(C)(N)Cc1ccc(O)cc1` (racemic) [alpha-Methyl-DL-tyrosine methyl ester hydrochloride], for the setting “compound concentration: 3 uM”, the “HMGB1-induced TNF-alpha production” value amounted to 92.6%.
The same measure, in the same setting: the result for `Nc1ncnc2c1ncn2[C@@H]1O[C@@H]2COP(=O)(O)O[C@H]2[C@H]1O` [Adenosine 3',5'-cyclic monophosphate] reads 88.4%; that for `CC1=C(/C=C/C(C)=C/C=C/C(C)=C/C=C/C=C(C)/C=C/C=C(C)/C=C/C(=O)[C@]2(C)C[C@@H](O)CC2(C)C)C(C)(C)C[C@H](O)C1`, 93.8%.
On to `C[C@H]1[C@H]2CC[C@H]3[C@@H]4CC=C5C[C@@H](N(C)C)CC[C@]5(C)[C@H]4CC[C@]23CN1C` [Conessine], for which the “HMGB1-induced TNF-alpha production” value under setting [1] worked out at 69.5%.
For the molecule `CC(C)C(=O)c1c(C(C)C)nn2ccccc12` [Ibudilast], the “HMGB1-induced TNF-alpha production” value (compound concentration: 3 uM) worked out at 63.9 ± 27%.
In the case of `C[N+](C)(C)C[C@H](O)CC(=O)[O-]`, the “HMGB1-induced TNF-alpha production” value (compound concentration: 3 uM) came to 90.2%.
Same read-out and setting: the figure for `NCCc1ccc(O)c(O)c1` [Dopamine hydrochloride] is 105 ± 22%; for `NCCc1ccc(O)c(O)c1` it is 96.9%.
As to `COc1ccc2c(=O)cc(-c3ccc(O)cc3)oc2c1`, under setting [1], the “HMGB1-induced TNF-alpha production” value worked out at 55.2%.
Consider `C[C@H](Cc1ccc(O)c(O)c1)[C@@H](C)Cc1ccc(O)c(O)c1`, for which the “HMGB1-induced TNF-alpha production” value (compound concentration: 3 uM) was 153%.
For the molecule `NC(N)=NC(N)=Nc1ccccc1` [1-Phenylbiguanide], the “HMGB1-induced TNF-alpha production” value (compound concentration: 3 uM) is 111%.
Consider `COc1ccc2c(=O)cc(-c3ccccc3OC)oc2c1` [2',7-Dimethoxyflavone], for which, under setting [1], the “HMGB1-induced TNF-alpha production” value was 91.7%.
In the case of `NC(=O)c1ccccc1` [Benzamide], the “HMGB1-induced TNF-alpha production” value (compound concentration: 3 uM) amounted to 59.9%.
Same read-out and setting: the result for `CN(Cc1cc(Br)cc(Br)c1N)C1CCCCC1` [Bromhexine hydrochloride] reads 117%.
On the same count and under the same terms, the figure for `CN(Cc1cc(Br)cc(Br)c1N)C1CCCCC1` is 109%; for `CN(Cc1cc(Br)cc(Br)c1N)C1CCCCC1` [Bromhexine] it is 84.3%.
Still for that read-out and setting: the figure for `C[C@H](CS)C(=O)N1CCC[C@H]1C(=O)O` [Captopril] is 90.1 ± 22%.
On to `C[C@H](CS)C(=O)N1CCC[C@H]1C(=O)O`, for which, where the note is “compound concentration: 3 uM”, the “HMGB1-induced TNF-alpha production” value came to 81.9%.
As for `Cc1cc(C(=O)N/N=C/c2c(O)c(O)c(C(C)C)c3cc(C)c(-c4c(C)cc5c(C(C)C)c(O)c(O)c(/C=N/NC(=O)c6cc(C)[nH]n6)c5c4O)c(O)c23)n[nH]1`, under setting [1], the “HMGB1-induced TNF-alpha production” value amounted to 50.9%.
